Measurements taken from patent publication US12731806B2, “Electrolyte regeneration for organic redox flow batteries based on water-soluble phenazine-based compounds” (CMBLU Energy AG, priority 2020, dated 2026).

Key:
[1] = Ferrocyanide treatment in solution with regeneration reagents (reducing agents)
[2] = Cycling in a redox flow cell (OCV, electrochemical activity); conditions: RFB cell; DHPS solution containing approx. 15-20% of MHPS and DHP
[3] = 125 mM reagent, room temperature, 2 h, start 347 mM hexacyanoferrate (II), 257 mM hexacyanoferrate (III), SOC 43%

With `O=C1O[C@H]([C@@H](O)CO)C(O)=C1O` [Ascorbic acid] the “hexacyanoferrate concentration c(Fe(CN)6^2)” value ([1]; 300 mM reagent (as 0.5M solution in 1M KOH/NaOH), room temperature, 3 h, start SOC 43%) was 415 mM.

For “Monohydroxyphenazinesulfonic acid [MHPS]”, the electrochemical activity [2] was “electrochemically active”.

With `O=S([O-])[O-].[K+].[K+]` [Potassium sulfite] the “hexacyanoferrate concentration c(Fe(CN)6^2)” value [1, 3] was 587 mM.

For `O=C[O-].[Na+]` [Sodium formate], the “hexacyanoferrate concentration c(Fe(CN)6^2)” value ([1]; 125 mM reagent, 40° C., 43 h, start SOC 43%) was 538 mM.

For `O=S([O-])S(=O)[O-].[Na+].[Na+]` [Sodium dithionite], the “hexacyanoferrate concentration c(Fe(CN)6^2)” value ([1]; 50 mM reagent, room temperature, 2 h, start SOC 43%) was 594 mM.

With `O=S([O-])[O-].[Na+].[Na+]` [Sodium sulfite] the “hexacyanoferrate concentration c(Fe(CN)6^2)” value [1, 3] was 591 mM.
